Assay results from the supplement of paper PMC6411743.
± gives the standard deviation of the averaged measurements. Only a part is listed here, and it is no random draw.

Chains of the proteins cited; added tags and fusions are not shown. Lines headed by an entry give the natural chain unless they say otherwise; changes in a name come on top.
UniProt O43242, whole entry: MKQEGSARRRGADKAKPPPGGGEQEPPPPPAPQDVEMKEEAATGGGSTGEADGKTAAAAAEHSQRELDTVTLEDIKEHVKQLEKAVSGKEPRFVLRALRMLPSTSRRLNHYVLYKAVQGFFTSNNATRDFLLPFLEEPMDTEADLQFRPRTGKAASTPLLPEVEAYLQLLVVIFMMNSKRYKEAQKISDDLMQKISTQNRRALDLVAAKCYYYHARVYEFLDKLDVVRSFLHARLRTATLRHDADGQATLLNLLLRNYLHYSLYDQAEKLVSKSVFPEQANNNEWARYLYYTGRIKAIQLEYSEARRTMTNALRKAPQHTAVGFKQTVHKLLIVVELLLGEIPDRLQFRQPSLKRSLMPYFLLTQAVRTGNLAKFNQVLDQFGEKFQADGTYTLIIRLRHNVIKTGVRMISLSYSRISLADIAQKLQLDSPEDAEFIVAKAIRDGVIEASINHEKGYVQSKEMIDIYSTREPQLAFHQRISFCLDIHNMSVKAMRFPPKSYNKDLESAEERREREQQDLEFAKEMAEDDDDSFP
UniProt O15037: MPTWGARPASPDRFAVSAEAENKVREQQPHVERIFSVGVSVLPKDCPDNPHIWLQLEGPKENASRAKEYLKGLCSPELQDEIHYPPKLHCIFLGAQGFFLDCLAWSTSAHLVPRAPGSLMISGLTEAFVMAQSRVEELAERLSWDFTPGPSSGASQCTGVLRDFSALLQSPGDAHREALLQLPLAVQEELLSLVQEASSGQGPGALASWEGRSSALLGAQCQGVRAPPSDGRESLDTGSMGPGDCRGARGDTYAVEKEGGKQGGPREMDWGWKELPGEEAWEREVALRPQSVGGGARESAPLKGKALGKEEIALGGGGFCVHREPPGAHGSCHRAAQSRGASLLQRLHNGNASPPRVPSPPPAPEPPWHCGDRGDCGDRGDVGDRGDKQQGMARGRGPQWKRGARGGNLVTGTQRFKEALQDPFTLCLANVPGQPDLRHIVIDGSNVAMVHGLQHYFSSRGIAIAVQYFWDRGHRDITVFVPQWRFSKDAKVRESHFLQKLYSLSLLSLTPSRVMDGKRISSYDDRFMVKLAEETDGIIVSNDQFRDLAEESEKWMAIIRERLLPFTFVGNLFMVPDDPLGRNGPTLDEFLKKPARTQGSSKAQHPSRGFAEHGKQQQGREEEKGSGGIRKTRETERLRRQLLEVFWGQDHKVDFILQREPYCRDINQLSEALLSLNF
UniProt O00418: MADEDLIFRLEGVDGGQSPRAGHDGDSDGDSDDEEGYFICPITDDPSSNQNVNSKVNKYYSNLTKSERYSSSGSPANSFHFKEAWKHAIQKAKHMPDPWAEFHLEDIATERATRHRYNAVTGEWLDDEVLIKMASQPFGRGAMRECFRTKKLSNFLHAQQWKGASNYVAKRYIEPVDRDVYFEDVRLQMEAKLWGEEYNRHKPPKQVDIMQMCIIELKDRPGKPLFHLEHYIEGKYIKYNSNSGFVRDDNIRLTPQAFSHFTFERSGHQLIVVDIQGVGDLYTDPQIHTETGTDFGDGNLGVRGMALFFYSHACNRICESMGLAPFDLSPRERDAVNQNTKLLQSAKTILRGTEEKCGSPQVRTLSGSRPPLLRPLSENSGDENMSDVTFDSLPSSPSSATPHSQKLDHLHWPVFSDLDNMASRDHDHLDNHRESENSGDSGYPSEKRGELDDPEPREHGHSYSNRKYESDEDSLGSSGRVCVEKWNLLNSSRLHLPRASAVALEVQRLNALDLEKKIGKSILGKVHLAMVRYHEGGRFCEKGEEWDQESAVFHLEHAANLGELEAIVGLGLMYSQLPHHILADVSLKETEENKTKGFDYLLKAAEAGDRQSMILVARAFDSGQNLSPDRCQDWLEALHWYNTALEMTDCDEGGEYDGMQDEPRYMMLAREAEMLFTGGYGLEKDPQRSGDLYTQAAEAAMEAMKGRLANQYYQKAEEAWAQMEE
UniProt O00264: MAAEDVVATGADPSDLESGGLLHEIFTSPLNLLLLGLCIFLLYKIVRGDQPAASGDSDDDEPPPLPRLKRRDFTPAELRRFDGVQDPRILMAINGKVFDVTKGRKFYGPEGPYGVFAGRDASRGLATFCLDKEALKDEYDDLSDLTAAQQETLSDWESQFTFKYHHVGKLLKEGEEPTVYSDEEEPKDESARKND
UniProt O14974: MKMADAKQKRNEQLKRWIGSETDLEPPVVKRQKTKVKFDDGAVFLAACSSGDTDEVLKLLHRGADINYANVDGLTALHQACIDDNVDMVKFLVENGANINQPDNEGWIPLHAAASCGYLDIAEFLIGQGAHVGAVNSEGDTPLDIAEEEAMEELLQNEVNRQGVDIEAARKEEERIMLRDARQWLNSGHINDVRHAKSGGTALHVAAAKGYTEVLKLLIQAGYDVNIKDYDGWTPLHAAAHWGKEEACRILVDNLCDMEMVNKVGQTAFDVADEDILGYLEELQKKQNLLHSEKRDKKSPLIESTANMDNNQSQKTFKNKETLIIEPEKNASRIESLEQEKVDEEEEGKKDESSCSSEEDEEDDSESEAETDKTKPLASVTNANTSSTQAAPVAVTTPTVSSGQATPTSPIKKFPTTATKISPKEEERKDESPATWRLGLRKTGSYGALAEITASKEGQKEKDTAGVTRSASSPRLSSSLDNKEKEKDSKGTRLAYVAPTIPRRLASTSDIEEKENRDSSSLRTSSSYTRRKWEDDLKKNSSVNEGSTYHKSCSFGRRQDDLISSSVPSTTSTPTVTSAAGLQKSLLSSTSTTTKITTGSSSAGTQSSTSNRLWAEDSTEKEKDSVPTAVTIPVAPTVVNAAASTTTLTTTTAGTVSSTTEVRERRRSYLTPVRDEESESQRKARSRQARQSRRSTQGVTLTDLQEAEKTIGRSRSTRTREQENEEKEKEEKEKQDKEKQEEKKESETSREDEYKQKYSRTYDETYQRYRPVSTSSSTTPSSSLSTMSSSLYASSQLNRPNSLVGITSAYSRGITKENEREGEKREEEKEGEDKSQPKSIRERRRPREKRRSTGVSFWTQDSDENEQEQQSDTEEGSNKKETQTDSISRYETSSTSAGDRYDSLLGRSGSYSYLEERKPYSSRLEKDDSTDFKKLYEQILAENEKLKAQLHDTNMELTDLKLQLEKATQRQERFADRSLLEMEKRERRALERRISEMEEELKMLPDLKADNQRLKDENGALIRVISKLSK
UniProt O43920, whole entry: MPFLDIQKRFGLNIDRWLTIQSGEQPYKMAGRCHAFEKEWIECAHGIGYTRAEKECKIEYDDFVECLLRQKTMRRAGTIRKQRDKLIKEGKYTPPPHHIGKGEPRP
UniProt O15226: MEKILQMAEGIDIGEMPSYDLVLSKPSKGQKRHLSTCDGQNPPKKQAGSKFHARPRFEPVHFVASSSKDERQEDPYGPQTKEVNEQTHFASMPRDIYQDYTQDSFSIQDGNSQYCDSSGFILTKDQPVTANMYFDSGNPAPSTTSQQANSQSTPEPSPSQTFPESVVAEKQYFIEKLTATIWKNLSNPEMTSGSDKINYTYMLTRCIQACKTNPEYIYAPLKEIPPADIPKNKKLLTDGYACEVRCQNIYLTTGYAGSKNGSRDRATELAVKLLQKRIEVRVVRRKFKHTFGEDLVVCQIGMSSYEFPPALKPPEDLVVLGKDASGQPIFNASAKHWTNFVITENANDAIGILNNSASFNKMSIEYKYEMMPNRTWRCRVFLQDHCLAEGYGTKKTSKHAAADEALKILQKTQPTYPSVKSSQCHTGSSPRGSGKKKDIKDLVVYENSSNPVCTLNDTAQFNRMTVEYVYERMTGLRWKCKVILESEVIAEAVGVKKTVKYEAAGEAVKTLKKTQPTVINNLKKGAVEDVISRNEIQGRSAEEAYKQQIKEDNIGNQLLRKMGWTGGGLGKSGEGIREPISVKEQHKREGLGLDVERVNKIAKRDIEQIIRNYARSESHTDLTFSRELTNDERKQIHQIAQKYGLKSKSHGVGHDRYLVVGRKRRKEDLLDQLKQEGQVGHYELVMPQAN

Compound: Nc1ncnc2c1ncn2[C@@H]1O[C@H](COP(=O)(O)OP(=O)(O)OP(=O)(O)O)[C@@H](O)[C@H]1O [adenosine triphosphate]
Assay: NP40-soluble protein abundance relative to vehicle (solubility fold change) (ratio); higher = more soluble protein in presence of ATP
Procedure, shortened: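 Values are fold changes against the detergent-processed vehicle, based on vsn-normalised intensities. Jurkat crude lysate was treated at eight concentrations from 0.1 to 10 mM (10 min at room temperature, then 3 min at 37 °C), solubilised with 0.8% NP40 and benzonase, ultracentrifuged and analysed by TMT-labelled LC-MS/MS over three independent experiments.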

Target	NP40-soluble protein abundance (concentration: 1mM)	NP40-soluble protein abundance (concentration: 2mM)	NP40-soluble protein abundance (concentration: 4mM)	NP40-soluble protein abundance (concentration: 6mM)	NP40-soluble protein abundance (concentration: 8mM)	NP40-soluble protein abundance (concentration: 10mM)
PSMD3 (UniProt O43242)	0.923 ± 0.068	0.874 ± 0.033	0.858 ± 0.03	0.815 ± 0.017	0.883 ± 0.037	0.857 ± 0.048
UniProt O15037	0.951 ± 0.095	0.921 ± 0.13	0.901 ± 0.11	0.903 ± 0.19	0.759 ± 0.25	0.916 ± 0.12
EEF2K (UniProt O00418)	0.9871 ± 0.0015	0.964 ± 0.038	0.935 ± 0.0095	0.972 ± 0.027	0.959 ± 0.014	0.953 ± 0.042
PGRMC1 (UniProt O00264)	0.944 ± 0.13	0.918 ± 0.11	0.903 ± 0.1	0.904 ± 0.12	0.877 ± 0.047	0.759 ± 0.11
UniProt O14974 and related entries	0.988 ± 0.051	1.01 ± 0.021	0.989 ± 0.012	1.05 ± 0.036	1 ± 0.031	1.01 ± 0.024
NDUFS5 (UniProt O43920)	1.01 ± 0.05	0.983 ± 0.012	0.963 ± 0.016	0.988 ± 0.064	0.977 ± 0.066	0.941 ± 0.068
UniProt O15226 and related entries	0.915 ± 0.017	0.909 ± 0.022	0.9456 ± 0.0046	0.994 ± 0.016	1.01 ± 0.016	1.06 ± 0.033
UniProt O14775-2|O14775-3	0.882 ± 0.012	0.964 ± 0.038	0.98 ± 0.025	0.987 ± 0.069	0.882 ± 0.02	0.903 ± 0.058
